The results in this text go back to paper PMC10693566.

Chains of the proteins cited; added tags and fusions are not shown. Residues count along the entry.
UniProt Q96CB9, residues 26-384: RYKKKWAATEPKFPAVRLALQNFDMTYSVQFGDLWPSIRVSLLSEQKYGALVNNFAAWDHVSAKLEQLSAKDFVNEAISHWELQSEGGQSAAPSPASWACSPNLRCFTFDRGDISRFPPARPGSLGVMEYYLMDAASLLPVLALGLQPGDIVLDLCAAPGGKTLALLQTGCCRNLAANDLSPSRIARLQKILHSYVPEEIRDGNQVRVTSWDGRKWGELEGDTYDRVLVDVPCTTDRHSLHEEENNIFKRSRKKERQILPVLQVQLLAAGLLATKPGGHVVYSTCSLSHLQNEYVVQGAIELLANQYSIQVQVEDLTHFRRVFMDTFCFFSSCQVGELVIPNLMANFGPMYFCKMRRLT

No constants are given. Whether binding was seen depends on the method and setting. Some entries that bind do so weakly or less than the wild type.

The experiment addresses T1, MTERF4 (human (endogenous in HEK293-6E)) (UniProt Q7Z6M4).
T1 sequence: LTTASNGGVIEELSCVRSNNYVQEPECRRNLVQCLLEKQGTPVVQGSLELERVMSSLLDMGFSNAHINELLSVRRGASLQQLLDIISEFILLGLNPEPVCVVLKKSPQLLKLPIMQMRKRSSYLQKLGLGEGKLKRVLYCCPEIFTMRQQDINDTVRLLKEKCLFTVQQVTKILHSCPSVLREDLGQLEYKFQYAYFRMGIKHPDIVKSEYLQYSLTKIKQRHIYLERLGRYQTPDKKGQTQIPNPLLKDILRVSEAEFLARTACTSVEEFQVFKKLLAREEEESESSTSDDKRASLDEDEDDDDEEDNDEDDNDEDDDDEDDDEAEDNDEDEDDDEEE
Description: cryo-EM structure; native mtLSU assembly intermediate 1 isolated from HEK293-6E mitochondria in the presence of GMPPNP (20 mM HEPES-KOH pH 7.6, 100 mM KCl, 40 mM MgCl2, 1 mM DTT); single particle reconstruction at 3.03 Å.

As to NSUN4 (from UniProt Q96CB9 26-384), the binding entry is given as “binds”.
